Laboratory results reported in PubChem BioAssay AID504834 (National Center for Advancing Translational Sciences (NCATS), 2011).
Among all 320,000 compounds or so, about 22,000 (6.9%) were called active. The inconclusive results got no clear call from the source; some entries with a clear call stand among them for comparison. Calls come from the whole dose curve; as a rule, active = well fitted inhibition curve with a large enough effect; inconclusive = small, poorly fitted or top-dose-only effect, or another doubt; inactive = no such curve, though single readings can be large or run the other way. A potency beside an inconclusive call is a rough fit, not a confirmed value.

Assay: Primary qHTS for delayed death inhibitors of the malarial parasite plastid, 96 hour incubation
Conditions: P. falciparum luciferase reporter growth; series mostly up to 28.7 µM
Procedure, shortened: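 96 h incubation, 37 C, 5% CO2, of luciferase-reporter P. falciparum-infected RBCs (2% hematocrit, 0.05% parasitemia final) with test compounds; endpoint luminescence.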
Potency is the fitted concentration of half-maximal effect.

| Compound | Potency |
| --- | --- |
| O=C(CCN1C(=O)/C(=C/c2cccs2)SC1=S)Nc1ccc(C(=O)O)cc1 | inconclusive: 9.28 µM [inhibitor, single point] |
| COc1cc2c(c(OC)c1)C(c1cccc(OC)c1OC)CC(=O)N2 (centres undefined) | inconclusive: 1.04 µM [inhibitor, partial curve, poor fit] |
| Cc1cccc(Nc2nc(N)c([N+](=O)[O-])c(NCCO)n2)c1 | inconclusive: 9.28 µM [inhibitor, partial curve, poor fit] |
| COCCn1c(=S)[nH]c2cc(C(=O)N3CCN(c4ccccc4OC)CC3)ccc2c1=O | inconclusive: 0.415 µM [inhibitor, partial curve, poor fit] |
| BrC(/C=C\c1ccccc1)=N/Nc1nc(N2CCOCC2)nc(N2CCOCC2)n1 | inconclusive: 11.7 µM [inhibitor, single point] |
| CCN(CC)c1ccc(N=Cc2c(O)n(Cc3ccco3)c(=O)[nH]c2=O)cc1 | inconclusive: 10.4 µM [inhibitor, single point] |
| CN(C)CCNC(=O)/C=N/O | inactive |
| Cc1ccc(C)c(S(=O)(=O)N2CCCC2CNC(=O)C(=O)NCCc2ccco2)c1 (centres undefined) | inconclusive: 18.5 µM [inhibitor, partial curve, poor fit] |
| CSc1ccc(CN2CCN(C(C)C)C(CCO)C2)cc1 (centres undefined) | inconclusive: 10.4 µM [inhibitor, single point] |
| CCN(CC)c1ncn(Cc2c(Cl)cccc2Cl)c2ncnc1-2 | inconclusive: 13.1 µM [inhibitor, partial curve, poor fit] |
| Cc1ccccc1C(=O)Nc1cccc(NC(=O)c2ccc(-c3ccc(Br)cc3)o2)c1 | inconclusive: 11.7 µM [inhibitor, single point] |
| CN(CC(=O)Nc1cccc(F)c1)C(=O)CNS(=O)(=O)c1ccc(N(C)C)c([N+](=O)[O-])c1 | inactive |
| CC(=O)Nc1ccc(NC(=O)c2cc(-c3cc(C)c(C)cc3O)n[nH]2)cc1 | inconclusive: 1.65 µM [inhibitor, full curve] |
| COc1cc(C(=O)OCCCN2CCOCC2)ccc1O | inactive |
| O=C(CCN1C(=O)C2CC=CCC2C1=O)Nc1nccs1 (centres undefined) | inactive |
| CCSc1nnc(NC(=O)NC(C)(C(F)(F)F)C(F)(F)F)s1 | inconclusive: 18.5 µM [inhibitor, single point] |
| Cc1ccc(C)c(-n2nnnc2SCC(=O)c2c(N)n(C)c(=O)n(C)c2=O)c1 | inconclusive: 2.33 µM [inhibitor, partial curve, poor fit] |
| C=CCNc1nc(-c2ccccc2)c(C(=O)OCC)cc1C#N | inconclusive: 0.738 µM [inhibitor, full curve, poor fit] |
| Cc1cccc(C(=O)NNC(=O)CCC(=O)Nc2cccc(Cl)c2C)c1 | inconclusive: 11.7 µM [inhibitor, partial curve, poor fit] |
| Cc1ccc(CS(=O)(=O)Cc2ccc(C(=O)NCc3ccccn3)o2)cc1 | inactive |
| Cc1csc(NC(=O)CSc2nnc(NC(=O)NC(C)(C)C)s2)n1 | inconclusive: 18.5 µM [inhibitor, single point] |
| Cc1cc(C(c2ccc(O)cc2)c2cc(C)c(O)cc2C)c(C)cc1O | inconclusive: 10.4 µM [inhibitor, single point] |
| CCOc1cc(C(=O)NC(C)C2CCCO2)cc(OCC)c1OCC (centres undefined) | active: 11.7 µM |

| Compound | Potency |
| --- | --- |
| Fc1ccc(CSc2nnc(Cc3sc(-c4ccccc4)nc3-c3ccccc3)o2)cc1 | active: 11.7 µM |
| CC(=O)N1CCN(C(=O)c2cc(S(=O)(=O)N(C)Cc3ccccc3)ccc2Cl)CC1 | inactive |
| O=C(CN1CCN(c2ccccc2)CC1)Nc1ccccc1Sc1ccccc1 | active: 9.28 µM |
| CC(C)(C)C(=O)Cn1c(NCCCl)nc2ccccc21 | inconclusive: 5.22 µM [inhibitor, partial curve] |
| COc1cc(C=O)ccc1OCCOCCOc1c(C)cc(Cl)cc1Cl | inconclusive: 11.7 µM [inhibitor, single point] |
| COc1ccc(C2C(C(=O)Nc3cccnc3)=C(C)Nc3nc(-c4cccs4)nn32)cc1 (centres undefined) | inconclusive: 16.5 µM [inhibitor, single point] |
| Cc1ccc(C(=O)Nc2ccccc2SCC2CSc3nc4ccccc4c(=O)n32)cc1 (centres undefined) | inconclusive: 8.28 µM [inhibitor, partial curve] |
| CCOC(=O)C1=C(O)/C(=C\c2ccc(OC)c(OC)c2)N=C1C | inconclusive: 2.08 µM [inhibitor, full curve, poor fit] |
| c1ccc(SCc2nc3ccccc3s2)nc1 | inactive |
| O=C(NC1CCCC1)C1CC(O)CN1C(=O)Nc1ccccc1 (centres undefined) | inactive |
| CN(C[C@H](Cc1ccccc1)N(C[C@H](Cc1ccccc1)N(CC1(c2ccccc2)CC1)N=O)N=O)N=O | active: 10.4 µM |
| COc1cc(C(C[N+](=O)[O-])c2c(C)cc3ccccn23)ccc1O (centres undefined) | inconclusive: 18.5 µM [inhibitor, single point] |
| O=C(C[n+]1cc(-c2ccc(F)cc2)n2c1CCC2)N1c2ccccc2Sc2ccccc21 | inconclusive: 1.85 µM [inhibitor, full curve, poor fit] |
| CCN(CC)C(=O)c1ccc(N2C(=O)C3CC=C(Cl)CC3C2=O)cc1 (centres undefined) | inactive |
| Cc1ccc(C(=O)N2CCC3(CC2)Oc2ccc(Cl)cc2C(=O)C32CC(c3ccccc3)=NO2)s1 (centres undefined) | inconclusive: 8.28 µM [inhibitor, partial curve] |
| CCOC(=O)CNC(=O)c1ccc2c(c1)OCCO2 | inconclusive: 18.5 µM [inhibitor, single point] |
| COc1ccc(CN2C(=O)c3ccccc3C2C(=O)NCCc2ccccc2)c(OC)c1 (centres undefined) | active: 8.28 µM |
| OCCC1CN(Cc2ccsc2)CCN1C1CCCC1 (centres undefined) | inconclusive: 18.5 µM [inhibitor, single point] |
| C=CCn1c(CNc2ccccc2)nnc1SCC(=O)N/N=C/c1ccccc1O | inconclusive: 10.4 µM [inhibitor, single point] |
| COCCN=C1N[C@@H](c2ccc(Br)cc2)C(C(=O)OC)=C(C)N1Cc1ccccc1 | inconclusive: 4.65 µM [inhibitor, partial curve, poor fit] |
| Cc1cnc(=O)[nH]c1SCc1ccc(C(F)(F)F)cc1 | inactive |
| CCOC(=O)c1c(NC(=O)COC(=O)Cn2cnc3ccccc32)sc2c1CCC(C)C2 (centres undefined) | inactive |
| COc1ccc2[nH]cc(C(=O)NCCc3ccccc3)c(=O)c2c1 | inactive |

| Compound | Potency |
| --- | --- |
| Cc1ccc(NC(=S)N(CCN2CCOCC2)Cc2ccccc2F)cc1 | inconclusive: 5.22 µM [inhibitor, partial curve, poor fit] |
| CC(C)c1ccccc1NC(=O)COC(=O)/C=C/c1cccc([N+](=O)[O-])c1 | inactive |
| C/C(NC1CCCCC1)=C(/C#N)C(=O)NCCN1CCOCC1 | inactive |
| O=C(NCC(=O)N(Cc1ccco1)C(C(=O)NC1CCCC1)c1ccncc1)c1cccs1 (centres undefined) | inconclusive: 18.5 µM [inhibitor, single point] |
| CCn1cc([N+](=O)[O-])c(C(=O)NCc2ccc(Cl)cc2)n1 | inactive |
| O=C(c1ccco1)N1CCN(S(=O)(=O)c2cccc(C(F)(F)F)c2)CC1 | inactive |
| O=C(NCC1CCCO1)C(=O)N/N=C/c1cccc(Cl)c1 (centres undefined) | inconclusive: 18.5 µM [inhibitor, single point] |
| COc1cc(OC)cc(C(=O)Nc2ccc(S(=O)(=O)Nc3nc(C)cc(C)n3)cc2)c1 | inconclusive: 3.29 µM [inhibitor, partial curve, poor fit] |
| CC(=O)Cc1nsc(NC(=O)c2cccc(F)c2)n1 | inconclusive: 14.7 µM [inhibitor, partial curve, poor fit] |
| COc1cc2[nH]c3ccccc3c2cc1C | inactive |
| Cc1ccc(Cn2c(=N)n(CC(=O)c3ccc([N+](=O)[O-])cc3)c3ccccc32)cc1 | inconclusive: 2.94 µM [inhibitor, full curve] |
| Cc1ccc2c(c1)C1CN(C)CCC1N2C(=O)COc1ccc(N(C)S(=O)(=O)c2cccs2)cc1 (centres undefined) | inconclusive: 14.7 µM [inhibitor, single point] |
| CCn1cc(C2=NOC(C(=O)Nc3cc(OC)c(Cl)cc3OC)C2)c(C)n1 (centres undefined) | inactive |
| O=C(CN1C(=O)NC2(CCCCCC2)C1=O)c1ccc(Cl)s1 | inactive |
| O=c1c2c3nc4ccccc4nc3n(CC3CCCO3)c2ncn1CCc1ccccc1 (centres undefined) | inconclusive: 16.5 µM [inhibitor, single point] |
| COc1ccc(N2CCN(C(=O)c3cc([N+](=O)[O-])ccc3N3CCN(CCO)CC3)CC2)cc1 | inconclusive: 10.4 µM [inhibitor, single point] |
| Cc1nc2ccc(NC(=O)c3c(-c4ccccc4)noc3C)cc2s1 | inconclusive: 18.5 µM [inhibitor, single point] |
| CN(CC(=O)Nc1cccc(F)c1)C(=O)CCc1nc2cc(S(=O)(=O)N3CCOCC3)ccc2n1C | inconclusive: 11.7 µM [inhibitor, single point] |
| CCc1cc2c(=O)c(-c3cscn3)coc2cc1OC | inactive |
| CN(C)S(=O)(=O)c1cccc(NC(=O)c2cc3c(=O)n4ccccc4nc3s2)c1 | inconclusive: 2.94 µM [inhibitor, full curve, poor fit] |
| Cc1cc(C)c(C)c(OCC(=O)N2CCOCC2)c1 | active: 13.1 µM |
| OC(CNCCCCNCC(O)C(F)(F)F)C(F)(F)F (centres undefined) | inactive |
| Cc1cc(C)cc(C(=O)N[C@@H](C)C(=O)N2CCC3(CC2)NCCc2[nH]cnc23)c1 | inactive |

No new results follow: entries from further up.

| Compound | Potency |
| --- | --- |
| CN(CC(=O)Nc1cccc(F)c1)C(=O)CCc1nc2cc(S(=O)(=O)N3CCOCC3)ccc2n1C | inconclusive: 11.7 µM [inhibitor, single point] |
| CCc1cc2c(=O)c(-c3cscn3)coc2cc1OC | inactive |
| CN(C)S(=O)(=O)c1cccc(NC(=O)c2cc3c(=O)n4ccccc4nc3s2)c1 | inconclusive: 2.94 µM [inhibitor, full curve, poor fit] |
| Cc1cc(C)c(C)c(OCC(=O)N2CCOCC2)c1 | active: 13.1 µM |
